Measured values reported in PubChem BioAssay AID504834 (National Center for Advancing Translational Sciences (NCATS), 2011).
In all, about 320,000 compounds went through this assay and about 22,000 (6.9%) were called active. Inconclusive means that the source gave no clear call. Such entries were picked first, then a sample of the others. Calls come from the whole dose curve; as a rule, active = well fitted inhibition curve with a large enough effect; inconclusive = small, poorly fitted or top-dose-only effect, or another doubt; inactive = no such curve, though single readings can be large or run the other way. Potencies beside an inconclusive call are fits to weak or partial responses and may not hold up.

assay: Primary qHTS for delayed death inhibitors of the malarial parasite plastid, 96 hour incubation; conditions: P. falciparum luciferase reporter growth; series mostly up to 28.7 µM
Method in brief: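 Luminescence readout: decreased luciferase signal marks inhibited growth of reporter-expressing P. falciparum in infected red cells (2% hematocrit, 0.05% parasitemia final), exposed to compound two generations (96 h, 37 C, 5% CO2).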
Potency is the fitted concentration of half-maximal effect.

Row | Structure (SMILES) | Potency
1 | CN(C)CCCN1C(=O)CSC1c1ccccc1 (stereo unspecified) | inconclusive: 0.828 µM [inhibitor, full curve, poor fit]
2 | CN(C)/C=N/c1c(C#N)cnn1-c1ncnc2sc(-c3ccccc3)cc12 | active: 10.4 µM
3 | Cc1ccc(S(=O)(=O)N2CCCCC2)cc1NC(=O)CCCOc1ccccc1 | inconclusive: 5.22 µM [inhibitor, partial curve]
4 | CCOC(=O)c1cc(-c2ccccc2)n(CC(=O)NC(C)(C)C)c1C | inconclusive: 0.294 µM [inhibitor, full curve, poor fit]
5 | Cc1cc(C)n(-c2ccc(C(=O)O)cc2)n1 | active: 1.85 µM
6 | O=C(O)c1ccc(CSCc2c(F)cccc2Cl)o1 | inconclusive: 18.5 µM [inhibitor, single point]
7 | O=C(N/N=C/c1c(O)n(-c2ccccc2Cl)c(=O)c2ccccc12)C1COc2ccccc2O1 (stereo unspecified) | inconclusive: 11.7 µM [inhibitor, single point]
8 | Cc1ccc(C(=O)NCC(=O)N(C)Cc2ccc(Cl)cc2Cl)s1 | inconclusive: 11.7 µM [inhibitor, single point]
9 | CN(C)S(=O)(=O)c1ccc2c(c1)nc(CCC(=O)Nc1ccc3c(c1)OCO3)n2C | inconclusive: 13.1 µM [inhibitor, single point]
10 | Cc1cccc(NC(=O)c2ccc(Cl)c(S(=O)(=O)N3CCCCC3)c2)n1 | inactive
11 | COc1ccccc1CCNC(=O)c1cc(COc2cccc(C(F)(F)F)c2)on1 | inconclusive: 18.5 µM [inhibitor, single point]
12 | Cn1c(=S)n(/N=C/c2cccs2)c2ccccc21 | inactive
13 | CCOC(=O)c1c(-c2ccc(F)cc2)csc1/N=C/N(C)C | inconclusive: 0.465 µM [inhibitor, full curve, poor fit]
14 | COc1ccc(N=Nc2c(C)[nH][nH]c2=O)cc1 | inconclusive: 5.22 µM [inhibitor, partial curve, poor fit]
15 | Cc1ccc(CN2CCN(Cc3cccc4c3OCO4)CC2CCO)cc1 (stereo unspecified) | inconclusive: 18.5 µM [inhibitor, single point]
16 | C/C=C/C=C\C(=O)Nc1cccc(C2=NOC3(C2)C[C@@H](C(N)=O)N(C(=O)c2cc([N+](=O)[O-])cc([N+](=O)[O-])c2C)C3)c1 (stereo partly specified) | inconclusive: 9.28 µM [inhibitor, partial curve]
17 | COc1ccc(NC(=O)CSc2nc3ccc(Nc4nc(N5CCOCC5)nc(N5CCOCC5)n4)cc3s2)cc1 | inconclusive: 18.5 µM [inhibitor, single point]
18 | Cc1ccccc1C(=O)NC(=S)Nc1ccccc1[N+](=O)[O-] | inconclusive: 4.65 µM [inhibitor, partial curve]
19 | CC(SCc1ccc(C(=O)O)o1)c1ccc(C(=O)O)o1 (stereo unspecified) | inactive
20 | COc1ccc(S(=O)(=O)N2CCC(C(=O)N3CCN(C)CC3)CC2)cc1Cl | inactive
21 | CN(CCc1cnn(C)c1)Cc1nc(Cc2ccccc2)no1 | inconclusive: 11.7 µM [inhibitor, single point]
22 | CCOc1ccc(C(O)C(CN2CCOCC2)c2ccccc2)cc1 (stereo unspecified) | active: 10.4 µM
23 | CCC(C)NC(=O)c1ccccc1NC(=O)/C(=C/c1ccc(OC)cc1)c1ccccc1 (stereo unspecified) | active: 11.7 µM
24 | CCOC(=O)Cn1c(=O)oc2cc(S(=O)(=O)NCc3cccs3)ccc21 | active: 13.1 µM

Row | Structure (SMILES) | Potency
25 | CC(=O)CCc1ccc(Oc2nc(-c3cccnc3)nc3ccccc23)cc1 | inconclusive: 10.4 µM [inhibitor, single point]
26 | O=c1c2ccccc2nc(-c2ccco2)n1CCc1ccc(O)cc1 | inconclusive: 18.5 µM [inhibitor, single point]
27 | CCCN(CCC)CCCNC(=O)c1ccc(CS(=O)(=O)c2c(Cl)cccc2Cl)o1 | inconclusive: 10.4 µM [inhibitor, partial curve, poor fit]
28 | Cn1ncc(Br)c1C(=O)Nc1ccc(Cl)cn1 | inactive
29 | Cc1[nH]n(C)c(=O)c1C(=O)c1c(-c2ccccc2Cl)noc1C | inconclusive: 11.7 µM [inhibitor, single point]
30 | OCC1(CCOc2ccccc2)CCN(Cc2ccccc2C(F)(F)F)CC1 | active: 8.28 µM
31 | CCCNc1cc(C)c(C#N)c2nc3ccccc3n12 | inactive
32 | Cc1ccc(C)c(N2CCN(C(=O)Cc3ccc(NC4=NC5CS(=O)(=O)CC5S4)cc3)CC2)c1 (stereo unspecified) | inconclusive: 18.5 µM [inhibitor, single point]
33 | CCn1c(SCC(=O)Nc2cc(C)on2)nc2sc3c(c2c1=O)CCCC3 | inconclusive: 18.5 µM [inhibitor, single point]
34 | OCCCn1c(-c2ccccc2)csc1=Nc1ccccc1 | inconclusive: 0.522 µM [inhibitor, partial curve, poor fit]
35 | COC(=O)c1ccc(N)c(N=CC2=C(O)CC(C)(C)CC2=O)c1 | inactive
36 | CCOP(=O)(c1ccccc1)C(O)c1ccc(F)cc1 (stereo unspecified) | active: 7.38 µM
37 | CCC(=O)Nc1cccc(C(=O)/C=C/c2ccccc2)c1 | inconclusive: 14.7 µM [inhibitor, single point]
38 | Nc1nc(CN2CCN(Cc3ccccc3)CC2)nc(Nc2ccccc2)n1 | active: 13.1 µM
39 | COc1cccc(NC(=O)CSc2ccc3nnc(CCNC(=O)c4ccccc4)n3n2)c1 | active: 10.4 µM
40 | CCN1CC(CCN2CCOCC2)C(c2ccccc2)(c2ccccc2)C1=O (stereo unspecified) | inactive
41 | CCCc1ccc(S(=O)(=O)NCCc2ccncc2)cc1 | inconclusive: 0.208 µM [inhibitor, full curve, poor fit]
42 | Cc1nc(SCC(=O)NC(=O)NCCC(C)C)c2c(-c3cccs3)csc2n1 | inconclusive: 13.1 µM [inhibitor, single point]
43 | COc1ccc(C(=O)N/N=C(\C)CC(=O)N2CCN(C=O)CC2)cc1 | inactive
44 | COc1ccccc1CNC(=O)CCC(=O)N1Cc2cccc(OC)c2Oc2ncccc21 | active: 9.28 µM
45 | Cc1ccc(NC(=O)/C(C#N)=N/Nc2ccc(C(=O)O)cc2)c(C)c1 | inconclusive: 4.15 µM [inhibitor, single point]
46 | Brc1ccc(CNc2ccc3ncccc3c2)cc1 | inactive
47 | COc1ccc(NC(=O)CSc2nc(N3CCCCC3)nc(N3CCCCC3)n2)cc1 | inconclusive: 18.5 µM [inhibitor, single point]
48 | COc1ccc(-c2ncccc2OC(=O)C23CC4CC(CC(C4)C2)C3)cc1 | inconclusive: 10.4 µM [inhibitor, single point]

Row | Structure (SMILES) | Potency
49 | COc1ccccc1NC(=S)N1CC(C)(C)C1=O | inconclusive: 20.8 µM [inhibitor, partial curve, poor fit]
50 | O=C1c2ccccc2C(=O)N1CCCn1ccnc1 | inconclusive: 3.29 µM [inhibitor, partial curve]
51 | CCOC(=O)c1cn(Cc2cccc(Cl)c2)c2cc(C)nn2c1=O | inconclusive: 5.22 µM [inhibitor, partial curve, poor fit]
52 | Cc1ccccc1NC(=O)c1ccc([N+](=O)[O-])o1 | active: 3.7 µM
53 | O=C(Nc1ccc(C(F)(F)F)cc1Cl)c1ccc(Cn2cc(Br)cn2)o1 | inconclusive: 18.5 µM [inhibitor, single point]
54 | CN(CC(=O)N1CCCCCC1)S(=O)(=O)c1cccc2cccnc12 | inactive
55 | Cc1nn2c(=O)cc(CSc3ccccc3NC(=O)c3ccccc3F)nc2s1 | inactive
56 | CCOC(=O)CC1(NC(=O)C2CCC(=O)N(Cc3ccccc3F)C2)CCCCC1 (stereo unspecified) | inactive
57 | O=[N+]([O-])c1cccnc1N/N=C/c1ccccc1O | inactive
58 | Cc1cccc(CC(=O)Nc2ccc(C(=O)N3CCOCC3)cc2)c1 | active: 2.33 µM
59 | CN(C)c1ccc(S(=O)(=O)NCC(=O)N2CCN(c3ccccc3)CC2)cc1[N+](=O)[O-] | inconclusive: 1.47 µM [inhibitor, full curve]
60 | Cc1cc(NC(=O)CSc2nc(C3CCCCC3)nc3ccccc23)no1 | inconclusive: 10.4 µM [inhibitor, partial curve, poor fit]
61 | CCn1c(C)nnc1SCC(=O)Nc1cccc(Cl)c1 | inconclusive: 4.15 µM [inhibitor, single point]
62 | C#CC[N+](C)(C)C(C#Cc1ccccc1)CC=C (stereo unspecified) | active: 5.86 µM
63 | O=C(O)C1C2CCC(C2)C1C(=O)NCCC1=CCCCC1 (stereo unspecified) | inconclusive: 10.4 µM [inhibitor, single point]
64 | COc1ccc(S(=O)(=O)N2CCN(S(=O)(=O)c3c(F)cccc3F)CC2)cc1 | inconclusive: 13.1 µM [activator, partial curve]
65 | CC(C)NC(=O)COC(=O)c1ccccc1CSC1=NCCS1 | inconclusive: 16.5 µM [inhibitor, partial curve, poor fit]
66 | CC1=C(C(=O)OC2CCCC2)C(c2coc3ccccc3c2=O)C2=C(CC(C)(C)CC2=O)N1 (stereo unspecified) | inconclusive: 18.5 µM [inhibitor, single point]
67 | Cc1cccc2cc(C(c3nnnn3CC3CCCO3)N3CCOCC3)c(=O)[nH]c12 (stereo unspecified) | inactive
68 | CCc1ccc(NC(=O)CCn2cccc2)cc1 | inconclusive: 18.5 µM [inhibitor, single point]
69 | CC1CCC(C(C)C)C(OC(=O)CSc2nccc(=O)[nH]2)C1 (stereo unspecified) | inconclusive: 20.8 µM [inhibitor, single point]
70 | O=c1[nH]c(=S)[nH]cc1S(=O)(=O)c1cccc(Cl)c1 | inconclusive: 9.28 µM [inhibitor, partial curve, poor fit]
71 | COc1ccccc1NS(=O)(=O)c1ccc(/C=C/C(=O)N2CCN(C(C)=O)CC2)cc1 | inconclusive: 7.38 µM [inhibitor, partial curve, poor fit]

Some of the entries so far, as a markdown table:

| Row | Structure (SMILES) | Potency |
| --- | --- | --- |
| 51 | CCOC(=O)c1cn(Cc2cccc(Cl)c2)c2cc(C)nn2c1=O | inconclusive: 5.22 µM [inhibitor, partial curve, poor fit] |
| 52 | Cc1ccccc1NC(=O)c1ccc([N+](=O)[O-])o1 | active: 3.7 µM |
| 53 | O=C(Nc1ccc(C(F)(F)F)cc1Cl)c1ccc(Cn2cc(Br)cn2)o1 | inconclusive: 18.5 µM [inhibitor, single point] |
| 63 | O=C(O)C1C2CCC(C2)C1C(=O)NCCC1=CCCCC1 (stereo unspecified) | inconclusive: 10.4 µM [inhibitor, single point] |
| 71 | COc1ccccc1NS(=O)(=O)c1ccc(/C=C/C(=O)N2CCN(C(C)=O)CC2)cc1 | inconclusive: 7.38 µM [inhibitor, partial curve, poor fit] |
